No constants are given. Whether binding was seen depends on the method and setting. For some assays here: In cells and extracts the contact can be indirect. Some entries that bind do so weakly or less than the wild type. Tags and fused reporters may be left off the sequences shown.
Key:
[1] = molecular target: PA2504 protein, T18 fusion of the bacterial two-hybrid system (plasmid p18C2504) (Pseudomonas aeruginosa) (UniProt Q9I0X8); assay: two-hybrid; one-to-one BACTH in E. coli BTH101 cyaA; MacConkey selective medium with maltose (red colonies) or LB X-Gal IPTG medium; negative controls with one empty vector
[2] = molecular target: His6-tagged PA2504 expressed in P. aeruginosa ΔPA2504 (plasmid pKGB2504) (Pseudomonas aeruginosa) (UniProt Q9I0X8); assay: cross-linking; in vivo formaldehyde cross-linking (0.1% to 1% tested), His6-PA2504 isolated on Ni-NTA, loading dye at 65 °C for 20 min to preserve the cross-links, SDS-PAGE and western blotting

B1: PA2504 protein, T18 fusion of the bacterial two-hybrid system (plasmid p18C2504) (protein, UniProt Q9I0X8 1-205)
chain: MASWTLVDASAIAVRHPYTFYKPDAETIDRVAAGESVKLIFAFDTDNPDAPRAERLWVTVEGIEADGAFSGRLDNYPQYIRDLSLGERIVFEARHIINTEHDPRETPISRYARRCFVTRRVIDEGKAVGYLYREAPEEENDSGWRLMAGDESDDYMNTAGTTAYVSLGSVLNADDSILPLLDAPPGRAFERLADGSFIEVQGPEG
- binding [1]: binds

B2: His6-tagged PA2504 expressed in P. aeruginosa ΔPA2504 (plasmid pKGB2504) (protein, UniProt Q9I0X8 1-205)
chain: MASWTLVDASAIAVRHPYTFYKPDAETIDRVAAGESVKLIFAFDTDNPDAPRAERLWVTVEGIEADGAFSGRLDNYPQYIRDLSLGERIVFEARHIINTEHDPRETPISRYARRCFVTRRVIDEGKAVGYLYREAPEEENDSGWRLMAGDESDDYMNTAGTTAYVSLGSVLNADDSILPLLDAPPGRAFERLADGSFIEVQGPEG
- binding [2]: binds

Source: publication PMC8466066, “Searching for Biological Function of the Mysterious PA2504 Protein from Pseudomonas aeruginosa” (International Journal of Molecular Sciences, 2021)
